According to paper PMC10321293:
No constants are given. Whether binding was seen depends on the method and setting. Binding seen in cells or lysates may run through a third protein. Some entries that bind do so weakly or less than the wild type.

Amino acid sequences for entries named in this document (tags omitted).
UniProt O55013: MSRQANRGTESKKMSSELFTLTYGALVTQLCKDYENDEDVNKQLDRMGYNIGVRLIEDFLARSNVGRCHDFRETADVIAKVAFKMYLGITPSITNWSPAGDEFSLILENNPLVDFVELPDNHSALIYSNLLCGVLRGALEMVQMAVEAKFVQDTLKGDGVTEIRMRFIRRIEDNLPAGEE
UniProt Q9ES56: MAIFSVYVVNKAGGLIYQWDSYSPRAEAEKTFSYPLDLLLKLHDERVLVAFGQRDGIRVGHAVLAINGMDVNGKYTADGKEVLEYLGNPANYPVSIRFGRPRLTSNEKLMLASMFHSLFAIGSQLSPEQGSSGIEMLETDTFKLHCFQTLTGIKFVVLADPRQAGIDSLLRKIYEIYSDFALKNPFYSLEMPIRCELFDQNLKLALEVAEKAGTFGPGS

Molecular target: mTrappc3 (mouse (endogenous in mouse brain)) (UniProt O55013)
Assay: co-IP; brain tissue lysate (RIPA buffer, 500 ug) of mTrappc9^+/+ and mTrappc9^m/m mice; TRAPPC3 antibody 1:500 at 4 C for 2 h or overnight; protein A magnetic beads; washed with PBS; western blot

- binding: binds
Substance: mTrappc4 (from UniProt Q9ES56 1-219)
